Experimental data as given in the supplement of paper PMC10849652.
This is one part of the list.

Protein sequences, listed by entry. Tags and fused reporters are not part of them. Lines headed by an entry give the natural chain unless they say otherwise; changes in a name come on top.
UniProt Q92622: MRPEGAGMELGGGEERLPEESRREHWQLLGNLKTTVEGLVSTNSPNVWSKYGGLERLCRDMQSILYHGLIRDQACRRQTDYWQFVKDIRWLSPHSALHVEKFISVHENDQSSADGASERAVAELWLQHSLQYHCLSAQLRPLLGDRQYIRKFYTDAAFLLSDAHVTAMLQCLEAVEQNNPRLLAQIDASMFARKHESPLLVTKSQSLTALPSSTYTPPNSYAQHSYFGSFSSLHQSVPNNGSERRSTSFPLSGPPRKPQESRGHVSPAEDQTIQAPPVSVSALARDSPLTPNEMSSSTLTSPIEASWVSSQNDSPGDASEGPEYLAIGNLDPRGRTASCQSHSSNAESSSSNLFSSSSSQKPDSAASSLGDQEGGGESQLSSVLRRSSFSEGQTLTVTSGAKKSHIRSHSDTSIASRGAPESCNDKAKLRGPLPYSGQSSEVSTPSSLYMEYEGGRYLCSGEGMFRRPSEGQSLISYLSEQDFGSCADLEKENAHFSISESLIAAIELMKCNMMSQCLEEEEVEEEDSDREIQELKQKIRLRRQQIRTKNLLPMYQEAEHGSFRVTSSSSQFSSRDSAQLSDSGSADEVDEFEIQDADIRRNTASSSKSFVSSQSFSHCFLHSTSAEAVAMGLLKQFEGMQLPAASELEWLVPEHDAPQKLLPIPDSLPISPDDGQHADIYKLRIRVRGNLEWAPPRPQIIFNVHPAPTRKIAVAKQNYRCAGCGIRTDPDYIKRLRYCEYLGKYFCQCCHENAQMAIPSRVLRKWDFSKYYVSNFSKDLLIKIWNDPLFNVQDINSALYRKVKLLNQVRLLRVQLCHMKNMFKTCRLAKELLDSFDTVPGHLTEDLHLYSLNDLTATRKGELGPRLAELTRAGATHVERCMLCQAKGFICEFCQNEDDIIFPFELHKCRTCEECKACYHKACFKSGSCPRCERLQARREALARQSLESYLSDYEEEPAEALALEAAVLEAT
UniProt Q7L3V2: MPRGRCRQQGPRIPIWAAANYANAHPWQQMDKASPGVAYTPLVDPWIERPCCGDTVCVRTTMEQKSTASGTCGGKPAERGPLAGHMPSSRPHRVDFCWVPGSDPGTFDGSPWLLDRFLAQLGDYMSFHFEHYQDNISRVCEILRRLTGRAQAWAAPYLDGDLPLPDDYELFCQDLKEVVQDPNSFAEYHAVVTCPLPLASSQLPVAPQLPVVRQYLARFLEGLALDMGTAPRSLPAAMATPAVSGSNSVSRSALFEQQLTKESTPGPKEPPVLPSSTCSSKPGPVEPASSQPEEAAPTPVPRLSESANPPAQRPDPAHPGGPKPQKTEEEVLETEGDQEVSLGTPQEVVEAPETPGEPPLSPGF
UniProt Q96CM3: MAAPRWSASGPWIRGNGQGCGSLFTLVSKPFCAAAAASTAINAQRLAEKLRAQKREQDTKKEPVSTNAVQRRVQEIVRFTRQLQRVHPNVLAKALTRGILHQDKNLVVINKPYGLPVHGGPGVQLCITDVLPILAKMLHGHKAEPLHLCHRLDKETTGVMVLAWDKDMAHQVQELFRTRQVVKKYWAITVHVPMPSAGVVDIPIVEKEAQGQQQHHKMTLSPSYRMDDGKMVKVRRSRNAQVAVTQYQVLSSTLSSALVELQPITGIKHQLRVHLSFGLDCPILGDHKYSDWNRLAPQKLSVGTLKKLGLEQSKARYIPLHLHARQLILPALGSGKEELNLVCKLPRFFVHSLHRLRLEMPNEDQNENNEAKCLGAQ
UniProt Q9Y3A4: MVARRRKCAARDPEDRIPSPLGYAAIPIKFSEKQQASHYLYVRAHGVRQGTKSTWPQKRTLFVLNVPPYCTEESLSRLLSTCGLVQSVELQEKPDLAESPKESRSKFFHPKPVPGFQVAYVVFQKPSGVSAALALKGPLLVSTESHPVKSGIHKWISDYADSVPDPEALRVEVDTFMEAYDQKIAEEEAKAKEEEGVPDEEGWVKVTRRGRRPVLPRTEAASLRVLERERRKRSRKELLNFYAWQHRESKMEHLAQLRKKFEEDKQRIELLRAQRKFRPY
UniProt Q9NQC3: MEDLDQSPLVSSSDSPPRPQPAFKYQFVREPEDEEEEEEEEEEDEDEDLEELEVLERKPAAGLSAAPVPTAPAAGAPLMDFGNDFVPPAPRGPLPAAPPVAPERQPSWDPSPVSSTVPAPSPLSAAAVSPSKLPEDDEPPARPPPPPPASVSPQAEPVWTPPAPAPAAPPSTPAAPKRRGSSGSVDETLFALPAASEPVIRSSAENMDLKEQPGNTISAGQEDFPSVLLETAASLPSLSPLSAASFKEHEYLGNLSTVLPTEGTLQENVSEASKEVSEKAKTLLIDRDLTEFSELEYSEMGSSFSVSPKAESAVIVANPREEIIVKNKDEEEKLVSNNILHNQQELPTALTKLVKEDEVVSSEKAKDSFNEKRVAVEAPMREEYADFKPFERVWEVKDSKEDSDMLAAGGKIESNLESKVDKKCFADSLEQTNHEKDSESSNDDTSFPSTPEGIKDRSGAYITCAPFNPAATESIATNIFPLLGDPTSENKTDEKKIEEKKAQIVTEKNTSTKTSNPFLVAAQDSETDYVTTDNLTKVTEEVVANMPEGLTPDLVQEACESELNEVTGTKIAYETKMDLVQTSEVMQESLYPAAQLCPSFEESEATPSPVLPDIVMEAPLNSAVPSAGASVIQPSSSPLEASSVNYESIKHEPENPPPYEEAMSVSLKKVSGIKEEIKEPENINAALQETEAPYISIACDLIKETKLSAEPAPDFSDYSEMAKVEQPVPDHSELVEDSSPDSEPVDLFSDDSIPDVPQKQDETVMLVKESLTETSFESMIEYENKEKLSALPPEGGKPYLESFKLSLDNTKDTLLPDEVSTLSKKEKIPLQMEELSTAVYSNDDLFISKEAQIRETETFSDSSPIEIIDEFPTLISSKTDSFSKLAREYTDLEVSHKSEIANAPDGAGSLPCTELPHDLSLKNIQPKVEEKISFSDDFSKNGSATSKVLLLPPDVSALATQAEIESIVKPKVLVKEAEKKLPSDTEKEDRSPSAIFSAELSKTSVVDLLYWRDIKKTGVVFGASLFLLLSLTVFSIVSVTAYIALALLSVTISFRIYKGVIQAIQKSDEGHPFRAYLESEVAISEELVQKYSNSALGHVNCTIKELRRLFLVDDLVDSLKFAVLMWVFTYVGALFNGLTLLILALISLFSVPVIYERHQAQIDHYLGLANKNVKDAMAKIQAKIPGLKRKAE
UniProt P26447: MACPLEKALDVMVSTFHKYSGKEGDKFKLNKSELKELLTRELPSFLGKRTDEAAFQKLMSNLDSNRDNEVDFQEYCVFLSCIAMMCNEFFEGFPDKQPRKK
UniProt Q9UIY3: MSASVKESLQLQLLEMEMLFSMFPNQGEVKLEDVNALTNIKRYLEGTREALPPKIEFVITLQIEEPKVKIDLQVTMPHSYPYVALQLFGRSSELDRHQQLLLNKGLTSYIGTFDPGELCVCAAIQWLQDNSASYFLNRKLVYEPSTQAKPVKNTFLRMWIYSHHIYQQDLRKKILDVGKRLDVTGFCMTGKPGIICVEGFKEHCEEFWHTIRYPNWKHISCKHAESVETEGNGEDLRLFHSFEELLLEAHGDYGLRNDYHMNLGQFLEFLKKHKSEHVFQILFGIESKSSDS
UniProt Q7L523, whole entry, looked up: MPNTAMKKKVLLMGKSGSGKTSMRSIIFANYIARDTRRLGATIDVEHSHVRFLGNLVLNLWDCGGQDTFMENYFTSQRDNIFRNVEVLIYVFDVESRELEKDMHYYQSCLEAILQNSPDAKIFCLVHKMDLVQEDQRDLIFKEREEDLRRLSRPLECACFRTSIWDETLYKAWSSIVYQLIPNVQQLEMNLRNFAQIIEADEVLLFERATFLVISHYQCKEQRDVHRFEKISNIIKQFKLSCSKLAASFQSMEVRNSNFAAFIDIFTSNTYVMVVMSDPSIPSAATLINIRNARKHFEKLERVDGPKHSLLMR
UniProt Q86VV8: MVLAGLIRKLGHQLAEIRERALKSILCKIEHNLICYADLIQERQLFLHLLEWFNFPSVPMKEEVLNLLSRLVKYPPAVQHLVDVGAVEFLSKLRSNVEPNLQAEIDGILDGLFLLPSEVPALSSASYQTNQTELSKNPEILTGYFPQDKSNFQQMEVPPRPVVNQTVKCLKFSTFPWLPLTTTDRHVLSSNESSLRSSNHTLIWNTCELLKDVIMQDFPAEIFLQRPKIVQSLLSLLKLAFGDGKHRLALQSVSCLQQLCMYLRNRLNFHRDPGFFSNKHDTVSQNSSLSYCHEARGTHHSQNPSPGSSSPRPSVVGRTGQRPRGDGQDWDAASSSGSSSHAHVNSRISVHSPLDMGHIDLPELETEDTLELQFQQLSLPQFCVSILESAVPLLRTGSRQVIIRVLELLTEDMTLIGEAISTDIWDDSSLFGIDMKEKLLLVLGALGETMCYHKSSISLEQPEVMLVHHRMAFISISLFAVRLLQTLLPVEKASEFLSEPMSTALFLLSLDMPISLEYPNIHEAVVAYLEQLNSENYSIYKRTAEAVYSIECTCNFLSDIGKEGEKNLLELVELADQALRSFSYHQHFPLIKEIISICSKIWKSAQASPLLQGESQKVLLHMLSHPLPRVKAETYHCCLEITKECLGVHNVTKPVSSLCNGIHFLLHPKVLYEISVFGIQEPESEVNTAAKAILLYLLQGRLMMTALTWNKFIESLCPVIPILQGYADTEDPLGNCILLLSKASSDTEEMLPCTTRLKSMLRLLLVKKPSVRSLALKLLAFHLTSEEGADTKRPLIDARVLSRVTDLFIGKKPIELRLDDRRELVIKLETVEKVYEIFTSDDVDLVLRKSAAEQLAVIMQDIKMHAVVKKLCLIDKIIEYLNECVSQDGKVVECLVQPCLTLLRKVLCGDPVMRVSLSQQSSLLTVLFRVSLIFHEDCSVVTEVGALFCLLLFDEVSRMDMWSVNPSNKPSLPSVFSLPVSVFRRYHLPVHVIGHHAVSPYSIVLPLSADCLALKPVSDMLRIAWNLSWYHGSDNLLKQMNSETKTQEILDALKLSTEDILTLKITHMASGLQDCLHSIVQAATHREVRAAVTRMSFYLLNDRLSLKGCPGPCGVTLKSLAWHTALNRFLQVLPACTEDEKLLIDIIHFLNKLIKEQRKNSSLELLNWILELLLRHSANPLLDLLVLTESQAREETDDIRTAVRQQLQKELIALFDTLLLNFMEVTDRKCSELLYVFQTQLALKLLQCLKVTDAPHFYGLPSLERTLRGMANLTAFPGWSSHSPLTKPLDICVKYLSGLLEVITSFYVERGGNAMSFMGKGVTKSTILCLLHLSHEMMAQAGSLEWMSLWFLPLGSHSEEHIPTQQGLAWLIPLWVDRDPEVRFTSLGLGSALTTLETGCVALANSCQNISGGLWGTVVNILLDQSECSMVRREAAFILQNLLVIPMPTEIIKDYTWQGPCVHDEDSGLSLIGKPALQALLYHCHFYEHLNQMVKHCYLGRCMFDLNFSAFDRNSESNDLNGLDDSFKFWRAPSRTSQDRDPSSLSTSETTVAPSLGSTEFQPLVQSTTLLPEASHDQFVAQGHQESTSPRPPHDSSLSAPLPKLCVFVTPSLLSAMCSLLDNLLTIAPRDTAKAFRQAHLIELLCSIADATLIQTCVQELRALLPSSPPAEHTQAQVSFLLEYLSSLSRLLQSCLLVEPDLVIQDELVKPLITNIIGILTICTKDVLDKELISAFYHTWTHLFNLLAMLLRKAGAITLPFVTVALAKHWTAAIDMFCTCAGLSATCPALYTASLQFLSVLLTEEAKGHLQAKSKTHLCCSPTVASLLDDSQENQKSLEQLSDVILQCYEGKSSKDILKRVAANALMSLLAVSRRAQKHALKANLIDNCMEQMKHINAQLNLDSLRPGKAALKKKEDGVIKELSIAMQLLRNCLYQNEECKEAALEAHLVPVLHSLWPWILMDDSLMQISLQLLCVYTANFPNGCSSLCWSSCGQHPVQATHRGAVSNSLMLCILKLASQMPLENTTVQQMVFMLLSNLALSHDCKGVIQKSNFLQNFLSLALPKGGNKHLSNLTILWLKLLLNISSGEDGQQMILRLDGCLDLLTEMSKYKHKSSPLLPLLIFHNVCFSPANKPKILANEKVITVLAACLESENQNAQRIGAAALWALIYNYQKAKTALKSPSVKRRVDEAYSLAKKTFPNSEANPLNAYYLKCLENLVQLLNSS

Experiments:
Test in all cases: log2 fold change, soluble protein after heating vs DMSO (PISA); higher = thermal stabilisation; K562 lysate, 10 uM; active = over 0.2 and 3.5 SD of the protein, either way, in both replicates (recomputed)
erlotinib = compound: C#Cc1cccc(Nc2ncnc3cc(OCCOC)c(OCCOC)cc23)c1 [erlotinib]
Summary of the method: (§1)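 Following dounce homogenisation of K562 pellets in PBS pH 7.4 with 1 mM MgCl2, crude extract at 1 mg/mL protein was incubated for 30 min with 10 μM compound. Aliquots were then heated for 3 min over 48°C-58°C and pooled, NP-40 was added to 0.5% at 4°C, and soluble protein was recovered as the supernatant at 21,000xg for 90 min. Channel-sum-equalised TMTpro 16plex LC-MS/MS quantified this protein. Each value, from duplicates, is a log-two fold change in thermal stability relative to solvent controls.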

[1] = compound: C/C(=N\NC(=O)C1=CC(=CC=C1)S(=O)(=O)N2CCOCC2)/C3=C(C=CC(=C3)Cl)O
Summary of the method: as §1

[2] = compound: C1=CC(=CC=C1C2=NC3=C(N2)C=C(C=C3)C(=O)N)OC4=CC=C(C=C4)Cl
Summary of the method: as §1

[3] = compound: C1=CC2=C(C=CC(=C2)/C=C\3/C(=O)NC(=NCC4=CC=CS4)S3)N=C1
Summary of the method: as §1

[4] = compound: C1=CC2=NC=CN=C2C=C1/C=C/3\C(=O)NC(=O)S3
Summary of the method: as §1

[5] = compound: C1=CC=C(C=C1)C2=NC(=C(N2)C3=CC=NC=C3)C4=CC(=C(C=C4)Cl)O
Summary of the method: as §1

[6] = compound: C1=CC=C2C(=C1)C3=NNC4=CC=CC(=C43)C2=O
Summary of the method: as §1

[7] = compound: C1CCN(C1)C(=O)NC2=CC=CC(=C2)NC3=NC=C(C(=N3)NCCC4=CN=CN4)Br
Summary of the method: as §1

[8] = compound: C1CN(CCC1(CC2=CC=C(C=C2)Cl)N)C3=NC=NC4=C3C=CN4
Summary of the method: as §1

IRAK-1-4 Inhibitor I = compound: C1COCCN1CCN2C3=CC=CC=C3N=C2NC(=O)C4=CC(=CC=C4)[N+](=O)[O-] [IRAK-1-4 Inhibitor I]
Summary of the method: as §1

ibrutinib = compound: C=CC(=O)N1CCC[C@@H](n2nc(-c3ccc(Oc4ccccc4)cc3)c3c(N)ncnc32)C1 [ibrutinib]
Summary of the method: as §1

[9] = compound: CC(=O)c1cnc2ccc(-c3cc(Cl)c(O)c(Cl)c3)nc2c1N[C@H]1CC[C@H](CN(C)C)CC1
Summary of the method: as §1

ralimetinib = compound: CC(C)(C)Cn1c(N)nc2ccc(-c3[nH]c(C(C)(C)C)nc3-c3ccc(F)cc3)nc21 [ralimetinib]
Summary of the method: as §1

[10] = compound: CC(C)(O)CC(=O)NCCn1ccc2ncnc(Nc3ccc(Oc4cccc(C(F)(F)F)c4)c(Cl)c3)c21
Summary of the method: as §1

[11] = compound: CC(C)C1=C2N=C(C=C(N2N=C1)NCC3=CC=CC=C3)NCCCCCCN
Summary of the method: as §1

[12] = compound: CC1=C(C(CC(=O)N1)C2=CC=C(C=C2)C(F)(F)F)C(=O)NC3=C(C=C4C(=C3)C=NN4)F
Summary of the method: as §1

[13] = compound: CC1=C(C2=C(C=C1)C(=O)C3=CC=CC=C3N2CCCN)C
Summary of the method: as §1

[14] = compound: CC1=C(C=C(C=C1)NC(=O)C2=CC(=CC=C2)C(C)(C)C#N)NC3=CC4=C(C=C3)N=CN(C4=O)C
Summary of the method: as §1

[15] = compound: CC1=C(C=C(C=C1)NC(=O)C2=CC(=CC=C2)N(C)C)NC(=O)C3=CC=C(C=C3)O
Summary of the method: as §1

[16] = compound: CC1=CC=C(C=C1)SC2=C3C=C(SC3=CN=C2)C(=O)N
Summary of the method: as §1

Measured: log2 fold change

RUBCN (UniProt Q92622)
inactive: erlotinib 0.157 | [1] 0.094 | [2] -0.126 | [3] -0.116 | [4] -0.038 | [5] -0.027 | [6] -0.04 | [7] 0.009 | [8] -0.054 | IRAK-1-4 Inhibitor I 0.005 | ibrutinib 0.056 | [9] -0.184 | ralimetinib -0.039 | [10] -0.138 | [11] 0.031 | [12] -0.101 | [13] 0.046 | [14] -0.024 | [15] 0.002 | [16] -0.185

RTL10 (UniProt Q7L3V2)
inactive: erlotinib 0.127 | [1] -0.017 | [2] 0.103 | [3] -0.034 | [4] 0.028 | [5] -0.029 | [6] 0.022 | [7] -0.05 | [8] -0.011 | IRAK-1-4 Inhibitor I 0.135 | ibrutinib 0.103 | ralimetinib -0.068 | [10] -0.081 | [11] -0.044 | [12] 0.004 | [13] 0.118 | [14] -0.075 | [15] -0.05

RPS16 (UniProt P62249)
inactive: erlotinib -0.039 | [1] -0.186 | [2] -0.033 | [3] -0.012 | [4] -0.024 | [5] -0.034 | [6] 0.029 | [7] 0.016 | [8] -0.018 | IRAK-1-4 Inhibitor I -0.026 | ibrutinib 0.002 | [9] 0.006 | ralimetinib -0.087 | [10] 0.01 | [11] -0.01 | [12] -0.011 | [13] -0.061 | [14] -0.033 | [15] -0.052 | [16] 0.04

RPS7, A0A2R8Y623
inactive: erlotinib 0.249 | [1] 0.194 | [2] 0.131 | [3] -0.164 | [4] 0.399 | [6] -0.172 | [7] -0.087 | [8] 0.029 | ibrutinib -0.059 | [9] -0.187 | [11] -0.145 | [13] 0.218 | [16] -0.017

RPUSD4 (UniProt Q96CM3)
inactive: erlotinib 0.01 | [1] 0.036 | [2] -0.022 | [3] -0.04 | [4] -0.069 | [5] 0.033 | [6] 0.018 | IRAK-1-4 Inhibitor I 0.081 | ibrutinib 0.059 | ralimetinib -0.059 | [10] -0.036 | [11] 0.055 | [12] -0.061 | [13] -0.184 | [14] -0.032 | [15] 0.064

RRP7A (UniProt Q9Y3A4)
inactive: erlotinib 0.038 | [1] 0 | [2] 0.035 | [3] -0.02 | [4] 0.038 | [5] 0.011 | [6] -0.072 | [7] 0.022 | [8] 0.04 | IRAK-1-4 Inhibitor I 0.005 | ibrutinib 0.081 | [9] 0.018 | ralimetinib 0.049 | [10] -0.055 | [11] 0.002 | [13] -0.041 | [14] -0.051 | [15] 0.059 | [16] -0.035

RTN4 isoform 5 (UniProt Q9NQC3)
inactive: erlotinib -0.051 | [1] -0.015 | [2] -0.033 | [3] 0 | [4] -0.018 | [5] -0.048 | [6] 0.057 | [7] 0.082 | [8] 0.062 | IRAK-1-4 Inhibitor I 0.066 | ibrutinib -0.062 | [9] 0.06 | ralimetinib 0.059 | [10] -0.054 | [11] -0.033 | [12] 0.083 | [13] -0.019 | [14] -0.001 | [15] 0.025 | [16] -0.018

RTN4 isoform 2 (UniProt Q9NQC3)
inactive: erlotinib -0.043 | [1] -0.381 | [2] 0.092 | [3] 0.175 | [4] 0.072 | [5] 0.038 | [6] -0.058 | [7] -0.017 | [8] 0.098 | IRAK-1-4 Inhibitor I 0.047 | ibrutinib -0.017 | [9] 0.013 | ralimetinib 0.046 | [10] -0.016 | [11] -0.019 | [12] -0.025 | [13] -0.045 | [14] 0.024 | [15] -0.033 | [16] -0.001

S100A4 (UniProt P26447)
inactive: erlotinib 0.084 | [1] 0.818 | [2] -0.159 | [3] 0.095 | [5] -0.059 | [6] -0.014 | [7] 0.176 | [8] -0.058 | IRAK-1-4 Inhibitor I 0.038 | [9] 0.037 | ralimetinib -0.039 | [10] -0.267 | [11] 0.121 | [12] 0.488 | [13] -0.004 | [14] 0.596 | [15] -0.103 | [16] 0.079

RWDD2A (UniProt Q9UIY3)
inactive: erlotinib -0.19 | [1] 0.032 | [2] 0.073 | [3] 0.164 | [4] -0.042 | [5] -0.053 | [6] -0.112 | [7] -0.06 | [8] -0.019 | IRAK-1-4 Inhibitor I -0.042 | ibrutinib 0.07 | ralimetinib -0.008 | [10] -0.028 | [11] 0.067 | [13] 0.13 | [14] 0.048 | [15] -0.022

RRAGA (UniProt Q7L523)
inactive: erlotinib -0.022 | [1] -0.019 | [2] 0.001 | [3] -0.065 | [4] 0.118 | [5] -0.107 | [6] -0.008 | [7] -0.062 | [8] 0.005 | IRAK-1-4 Inhibitor I 0.026 | ibrutinib -0.114 | [9] 0.008 | ralimetinib -0.112 | [10] -0.524 | [11] 0.006 | [12] 0.005 | [13] -0.089 | [14] 0.079 | [15] 0.343 | [16] -0.113

RTTN (UniProt Q86VV8)
inactive: erlotinib -0.002 | [1] -0.196 | [2] -0.123 | [3] -0.103 | [4] 0.045 | [5] -0.043 | [6] -0.056 | [7] 0.14 | [8] 0.036 | IRAK-1-4 Inhibitor I 0.098 | ibrutinib 0.095 | [9] 0.155 | ralimetinib 0.145 | [10] -0.137 | [11] 0.379 | [12] -0.053 | [13] 0.015 | [15] -0.004 | [16] 0.112
